Measurements from PubChem BioAssay AID1487 (National Center for Advancing Translational Sciences (NCATS), 2009).
“And” between values parts separate entries of the source, which are not always exact repeats. Equal values may be shown once. The list shows a part of the results. Shown are side measurements of this screen, not its main read-out; they come without a call. Compounds called inactive in the main read-out are mostly missing here. Words in brackets tell the shape of the fitted curve; partial curves, single points and poor fits give uncertain potencies.

Experiment: qHTS Assay for Modulators of Lamin A Splicing
Conditions: HeLa LMNA splicing GFP/RFP minigene ratio, 48 h
Outline: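 S3 HeLa cells stably expressing lamin A-EGFP splicing minigene plus DsRed2, 600 cells/well, 48 h compound exposure at 37C. Laser-scanning cytometry; analysed as GFP (500-530 nm)/RFP (575-640 nm) total intensity ratio; 0.5% DMSO vehicle.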

[1] = measured here: GFP splicing reporter channel
[2] = measured here: RFP viability control channel

Structure (SMILES)	AC50 [1]	AC50 [2]
N#Cc1c(NC(=O)CSC2=NCCS2)sc2c1CCCC2	10 µM [rising, partial curve]	14.1 µM [rising, partial curve]
Cc1ccc(-c2ccc(/C=C3\C(=O)ON=C3c3ccccc3)o2)c([N+](=O)[O-])c1	0.631 µM [falling, single point]	14.1 µM [falling, single point]
COCCN(Cc1cc2cc(C)ccc2n2nnnc12)C(=S)Nc1ccc(C)cc1	0.501 µM [rising, partial curve, poor fit]	
O=C(Cn1c(=O)nc(-c2ccccc2)c2ccccc21)NCc1ccccc1Cl	35.5 µM [falling, single point]	
Cc1nc(Nc2ccc(Cl)cc2)c2nnn(Cc3ccccc3)c2n1		1.26 µM [falling, partial curve, poor fit]
Cn1c(O)c(N=NC(=O)c2cccc(S(=O)(=O)N3CCCCC3)c2)c2ccccc21		11.2 µM [rising, single point]
CC(=O)c1ccc(NC(=O)CSc2nc(=O)n(Cc3ccncc3)c3c2CCC3)cc1	0.0141 µM [falling, full curve, poor fit]	
CCN(Cc1ccncc1)C(=O)CCc1nnc(CCc2ccc(OC)cc2)o1		35.5 µM [falling, single point]
CC(=O)c1ccc(N2CCN(C(=O)Nc3ccc(F)cc3)CC2)cc1	2.82 µM [rising, partial curve, poor fit]	
Cc1ccccc1C(=O)O/N=C/c1c(N2CCOCC2)n(C)c2ccccc12	5.01 µM [falling, partial curve]	5.62 µM [falling, full curve]
O=S(=O)(c1ccc(F)c(F)c1F)N1CCN(C(=S)NCc2ccccc2)CC1		0.126 µM [rising, full curve, poor fit]
c1ccc2c(c1)CCN(c1nc3cc4c(cc3s1)OCCO4)C2	15.8 µM [rising, single point]	17.8 µM [rising, partial curve]
CCCC(=O)N1CCN(c2ccc(NC(=O)c3cc4ccccc4o3)cc2Cl)CC1	3.16 µM [falling, single point]	14.1 µM [falling, single point]
Clc1ccc(OCCCCCN2CCCC2)c(Br)c1		0.0126 µM [falling, full curve, poor fit]
COc1cc(NC(=O)CCC2CCCC2)cc(-n2cnnn2)c1		17.8 µM [rising, single point]
CC(C)C(c1nnnn1Cc1ccccc1)N1CCC(C(N)=O)CC1 (centres undefined)	0.398 µM [falling, full curve, poor fit]	0.0126 µM [falling, full curve, poor fit]
COc1ccc(C2=NN(C(=O)CSc3nc4ncc(Cl)cc4[nH]3)C(c3ccco3)C2)cc1 (centres undefined)	0.0316 µM [falling, full curve, poor fit]	
COc1ccc(OC)c(NC(=O)C2CCCCC2)c1	35.5 µM [rising, single point]	
OCC1(Cc2ccccc2)CCN(Cc2ccccn2)CC1		7.08 µM [falling, single point]
O=S(=O)(c1cccc(-c2csc(-c3ccccc3)n2)c1)N1CCOCC1		14.1 µM [rising, single point]
CC(C)(C)n1nc2c(c1NC(=O)Cc1ccccc1)CS(=O)(=O)C2	0.01 µM [rising, full curve, poor fit]	
O=C(Nc1ccc(N2CCOCC2)c(Cl)c1)c1ccc(Cl)cc1	11.2 µM [rising, partial curve]	10 µM [rising, partial curve]
CCOCCCn1cc(C(=O)c2cc(Br)ccc2O)cc(C#N)c1=O	5.62 µM [rising, full curve]	7.94 µM [rising, partial curve]
CCOC(=O)C1=C(C)NC(=O)NC1c1ccc(-c2ccccc2F)o1 (centres undefined)	35.5 µM [rising, single point]	
CC(C)NC(=O)c1onc(CSc2cccc3ccccc23)c1C(=O)O	15.8 µM [falling, single point]	
CC1CCC2C(=O)N(c3ccc(Cc4ccncc4)cc3)C(=O)C2C1 (centres undefined)	10 µM [falling, partial curve]	10 µM [falling, partial curve]
Cc1onc(-c2ccccc2)c1C(=O)NC(=S)NNC(=O)c1ccccc1O	0.562 µM [rising, full curve]	0.794 µM [rising, full curve]
CC1CCCN(c2nc3ccccc3nc2C(C#N)S(=O)(=O)c2cccs2)C1 (centres undefined)	17.8 µM [rising, single point]	31.6 µM [rising, single point]

Some values from above.
Value for `COc1ccc(OC)c(NC(=O)C2CCCCC2)c1` under AC50 [1]: 35.5 µM [rising, single point]
Value for `CC(=O)c1ccc(NC(=O)CSc2nc(=O)n(Cc3ccncc3)c3c2CCC3)cc1` under AC50 [1]: 0.0141 µM [falling, full curve, poor fit]
Value for `O=S(=O)(c1ccc(F)c(F)c1F)N1CCN(C(=S)NCc2ccccc2)CC1` under AC50 [2]: 0.126 µM [rising, full curve, poor fit]

More structures

Structure (SMILES)	AC50 [1]	AC50 [2]
O=C(N/N=C/C=C/c1ccco1)c1cccs1		1.58 µM [falling, partial curve]
N#Cc1ccccc1N=C1CCCN1Cc1ccccc1	0.00447 µM [rising, full curve, poor fit]	
Cc1ccc(S(=O)(=O)Nc2ccc(SC(F)F)cc2)c(C)c1	14.1 µM [rising, partial curve, poor fit]	12.6 µM [rising, partial curve]
Cc1cccn2c(=O)c(C(=O)NCc3cccc(F)c3)cnc12	4.47 µM [rising, full curve, poor fit]	
Cn1c(SCc2ccc(C#N)cc2Cl)nc2ccccc21	11.2 µM [rising, partial curve]	14.1 µM [rising, single point]
N#C/C(=N\Nc1ccc(S(=O)(=O)N2CCOCC2)cc1)C(N)=S	35.5 µM [falling, single point]	
CN(C)CCN(Cc1ccccc1)c1ccccn1	0.631 µM [falling, partial curve]	22.4 nM [rising, full curve, poor fit] and 28.2 nM [rising, full curve, poor fit]
Cc1ccccc1Oc1nc(-c2ccccn2)nc2ccccc12	0.141 µM [falling, partial curve, poor fit]	
CC(C)(C)c1ccc(S(=O)(=O)NCCc2ccncc2)cc1	17.8 µM [rising, single point]	12.6 µM [rising, partial curve]
CCN=c1scc(-c2ccco2)n1/N=C/c1ccc(OC)c(O)c1	11.2 µM [rising, partial curve]	12.6 µM [rising, single point]
COc1ccccc1N1CCN(CCN(C(=O)C2CCCCC2)c2ccccn2)CC1		5.62 µM [falling, single point]
CCOC(=O)C1=C(c2ccccc2)NC(=O)N(C(C)=O)C1c1cccc([N+](=O)[O-])c1 (centres undefined)	0.0112 µM [falling, full curve, poor fit]	
CCOc1ccc(NS(=O)(=O)c2ccc3[nH]c4c(c3c2)CCCCC4)cc1	12.6 µM [falling, partial curve]	12.6 µM [falling, partial curve]
CC1(C)C(=O)OC(c2cccs2)C2(CCCCC2)C1=O (centres undefined)		35.5 µM [falling, single point]
Cc1cc(NCc2ccccc2)nc(-c2ccccc2O)n1		12.6 µM [rising, single point]
CC(C)CCN1C(=O)c2ccc(C(=O)Nc3cccc(S(N)(=O)=O)c3)cc2C1=O		35.5 µM [falling, single point]
CCOC(=O)c1ccc(NC(=O)c2ccccc2N(C)S(=O)(=O)c2ccccc2)cc1		17.8 µM [rising, partial curve, poor fit]
O=c1[nH]c(CN2CCN(S(=O)(=O)/C=C/c3ccccc3)CC2)nc2ccccc12		1.58 µM [rising, full curve, poor fit]
CCN(CC)CCCNC(=O)Cc1csc2nc(-c3ccc(Cl)cc3)cn12	39.8 µM [falling, partial curve, poor fit]	
C=C(C)CN(CC)C(=O)CSc1nc(O)cc(=O)n1C1CCCC1	0.01 µM [falling, full curve, poor fit]	
C[C@@H](C(=O)NCCc1c[nH]c2ccccc12)[C@H]1C[C@]1(C)[C@H](NC(=O)OCc1ccccc1)c1ccccc1		12.6 µM [rising, partial curve]
CC(=O)[C@H]1CC[C@H]2C3CC=C4C[C@@H](O)CC[C@]4(C)C3CC[C@]12C (some centres undefined)	35.5 µM [rising, single point]	35.5 µM [rising, single point]
CCCCc1ccc(C2C3=C(CC(C)(C)CC3=O)NC3=C2C(=O)c2ccccc23)cc1 (centres undefined)		35.5 µM [rising, single point]
COc1cccc(Nc2ncc3nc(-c4ccc(F)cc4)c(=O)n(C)c3n2)c1		11.2 µM [falling, partial curve]
CCN1CCN(Cc2c(O)ccc3c2O/C(=C\c2ccc(C)cc2)C3=O)CC1	0.0112 µM [falling, full curve, poor fit]	
COc1ccc2c(c1)O[C@H](c1ccc3c(c1)OCO3)[C@@H](OC(=O)Nc1cc(OC)c(OC)c(OC)c1)C2=O	7.94 µM [rising, partial curve]	7.08 µM [rising, partial curve]
CCCCCOC(=O)NC1CCS(=O)(=O)C1 (centres undefined)	12.6 µM [rising, single point]	
